Experimental data taken from patent US12583818B2 (DAEGU-GYEONGBUK MEDICAL INNOVATION FOUNDATION, priority 2020, dated 2026).
Some of these results come from one statement about several compounds together.

tested on: MDA-MB 231 triple negative breast cancer cell line; test: MDA-MB 231 protein expression inhibition (Western blotting, cycline D1 vs Vinculin); assay type: cell-based, human; settings: compound 10 μM, 72 hours; summary of Table 3
Protocol: In order to confirm the ability of the compound represented by formula 1 according to the present invention to inhibit the protein expression of MDA-MB 231 triple negative breast cancer cell line, the following experiment was performed, and the results are shown in Table 3 below.
MDA-MB-231 cells were cultured in a 5% CO2 incubator at 37° C. using RPMI medium supplemented with 10% FBS and 1% penicillin/streptomycin.
The cells were washed with PBS once a day, and then replaced with a new medium. The cells grown at the density of at least 90% 1 day before the experiment were detached using trypsin/EDTA, and then plated at the density of 100,000 per well in a 6-well plate.
On the next day of culture, the compound prepared in each example was treated at a concentration of 10 μM, and DMSO was treated at a concentration of 0.1% of the total as the control, followed by incubation for 72 hours. After 72 hours, the cells were washed twice with PBS, collected by scraping, and centrifuged at 13,000 rpm for 3 minutes to remove all the supernatant and only cells were taken.
RIPA buffer (containing 1× protease inhibitor and phosphatase inhibitor) was added to the prepared cells (80 μl/well), and the plate was shaken once every 5 minutes to disrupt the cells for a total of 15 minutes. The disrupted cells were centrifuged at 13,000 rpm for 15 minutes to collect only the supernatant protein. The obtained protein was quantified using a BCA protein quantification kit (Pierece, MA, USA), and a total of 10 μg of the protein was used for Western blotting.
The protein sample was isolated by 10% SDS-PAGE, and transferred to a PVDF membrane. Anti-human cycline D1 antibody (Cell signal) and anti-Vinculin antibody were bound to the protein sample, and the expression of the protein was measured by using an ECL reagent and LAS4000 equipment. The measurement results were quantified and generalized using ImageJ. The results are shown in Table 3 below by dividing the grades A to D according to the amount of the protein compared to the DMSO-treated control group.

SMILES	expression level of MDA-MB 231 triple-negative breast cancer cell line protein compared to the DMSO-treated control group
CCN(CC)CCCOc1ccc(S(=O)(=O)NCCCc2c[nH]c3ccccc23)cc1 [Example 35, N-(3-(1H-indol-3-yl)propyl)-4-(3-(diethylamino)propoxy)benzenesulfonamide]	less than 35%
O=S(=O)(NCCCc1c[nH]c2ccc(F)cc12)c1ccc(OCCCN2CCNCC2)cc1 [Example 61, N-(3-(5-fluoro-1H-indol-3-yl)propyl)-4-(3-(piperazin-1-yl)propoxy)benzenesulfonamide]	less than 35%
CN1CCN(CCCOc2ccc(S(=O)(=O)NCCCc3c[nH]c4ccc(Cl)cc34)cc2)CC1 [Example 66, N-(3-(5-chloro-1H-indol-3-yl)propyl)-4-(3-(4-methylpiperazin-1-yl)propoxy)benzenesulfonamide]	less than 35%
O=S(=O)(NCCCc1c[nH]c2ccc(Cl)cc12)c1ccc(OCCCN2CCNCC2)cc1 [Example 70, N-(3-(5-chloro-1H-indol-3-yl)propyl)-4-(3-(piperazin-1-yl)propoxy)benzenesulfonamide]	less than 35%
O=S(=O)(NCCCc1c[nH]c2ccc(Cl)cc12)c1ccc(OCCCN2CCC(O)CC2)cc1 [Example 75, N-(3-(5-chloro-1H-indol-3-yl)propyl)-4-(3-(4-hydroxypiperidin-1-yl)propoxy)benzenesulfonamide]	less than 35%
CNC1CN(CCCOc2ccc(S(=O)(=O)NCCCc3c[nH]c4ccc(Cl)cc34)cc2)C1 [Example 77, N-(3-(5-chloro-1H-indole-3-yl)propyl)-4-(3-(3-(methylamino)azetidine-1-yl)propoxy)benzenesulfonamide]	less than 35%
O=S(=O)(NCCCc1c[nH]c2ccc(Cl)cc12)c1ccc(OCCCN2CCC(Cl)CC2)cc1 [Example 78, N-(3-(5-chloro-1H-indol-3-yl)propyl)-4-(3-(4-chloropiperidin-1-yl)propoxy)benzenesulfonamide]	less than 35%
O=S(=O)(NCCCc1c[nH]c2ccc(Cl)cc12)c1ccc(OCCCN2CCNCC2)nc1 [Example 79, N-(3-(5-chloro-1H-indole-3-yl)propyl)-6-(3-(piperazine-1-yl)propoxy)pyridine-3-sulfonamide]	less than 35%
O=S(=O)(NCCCc1c[nH]c2ccc(Cl)cc12)c1ccc(OCCCN2CCC(C(F)(F)F)CC2)cc1 [Example 81, N-(3-(5-chloro-1H-indol-3-yl)propyl)-4-(3-(4-(trifluoromethyl)piperidin-1-yl)propoxy)benzenesulfonamide]	less than 35%
CN1CCCN(CCCOc2ccc(S(=O)(=O)NCCCc3c[nH]c4ccc(Cl)cc34)cc2)CC1 [Example 83, N-(3-(5-chloro-1H-indol-3-yl)propyl)-4-(3-(4-methyl-1,4-diazepan-1-yl)propoxy)benzenesulfonamide]	less than 35%
O=S(=O)(NCCCc1c[nH]c2ccc(Cl)cc12)c1ccc(CCCCN2CCNCC2)cc1 [Example 91, N-(3-(5-chloro-1H-indol-3-yl)propyl)-4-(4-(piperazin-1-yl)butyl)benzenesulfonamide]	less than 35%
CN1CCC(CCCOc2ccc(S(=O)(=O)NCCCc3c[nH]c4ccc(Cl)cc34)cc2)CC1 [Example 92, N-(3-(5-chloro-1H-indole-3-yl)propyl)-4-(3-(1-methylpiperidine-4-yl)propoxy)benzenesulfonamide]	less than 35%
O=S(=O)(NCCCc1c[nH]c2ccc(Cl)cc12)c1ccc(OCCCC2CCNCC2)cc1 [Example 93, N-(3-(5-chloro-1H-indole-3-yl)propyl)-4-(3-(piperidine-4-yl)propoxy)benzenesulfonamide]	less than 35%
CN1CCN(CCCNc2ccc(S(=O)(=O)NCCCc3c[nH]c4ccc(Cl)cc34)cc2)CC1 [Example 98, N-(3-(5-chloro-1H-indole-3-yl)propyl)-4-((3-(4-methylpiperazine-1-yl)propyl)amino)benzenesulfonamide]	less than 35%
O=S(=O)(NCCCc1c[nH]c2ccc(Cl)cc12)c1ccc(CCCCC2CCNCC2)cc1 [Example 99, N-(3-(5-chloro-1H-indole-3-yl)propyl)-4-(4-(piperidine-4-yl)butyl)benzenesulfonamide]	less than 35%
O=S(=O)(NCCCc1c[nH]c2ccc(Cl)cc12)c1ccc(Oc2cccc(N3CCNCC3)c2)cc1 [Example 121, N-(3-(5-chloro-1H-indol-3-yl)propyl)-4-(3-(piperazin-1-yl)phenoxy)benzenesulfonamide]	less than 35%
